Laboratory results: PubChem BioAssay AID1259405 (NCATS, 2018)

- Assay: 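Knock-downs that lift recombinant protein yield in hamster ovary cells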 (primary screen)
- System: Chinese hamster CHO-K1 ovary cells with stable secreted eGFP expression
- Reagent: single siRNA against mouse genes, 0.8 pmol siRNA per well (2 µl of 400 nM stock)
- Timing: 3 days
- Measured: 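Per-well intracellular GFP measured by laser scanning cytometry, plus viability from ATP luminescence, each relative to plate median of non-targeting control wells, in %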
- Direction: GFP, % of control: higher = more GFP per well, higher productivity; viability (ATP), % of control: higher = more viable cells (more ATP)
- Call rule: 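Called active when intracellular GFP, relative to negative control, is at or above 120%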
The whole screen tested about 50,000 reagents; below is a random part of them. About 4,000 of all reagents (8%) were called active. 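Mouse siRNA library applied to hamster cells; one well for each siRNA.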 The numbers tell different reagents against one gene apart. No sequences are given here.

Against Or5ak25 #1, the values are GFP, % of control 61.6; viability (ATP), % of control 32.5; inactive.
After knock-down of Or5ak25 #2, the record shows GFP, % of control 87.8; viability (ATP), % of control 94.7; inactive.
Silencing of Or5ak25 #3 gave: GFP, % of control 58.6; viability (ATP), % of control 74.5; inactive.
Depletion of Usp22 #1 resulted in: GFP, % of control 79.7; viability (ATP), % of control 88.9; inactive.
With knock-down of Usp22 #2 the results were GFP, % of control 95.3; viability (ATP), % of control 89.7; inactive.
Usp22 #3 gave GFP, % of control 32; viability (ATP), % of control 44.1; inactive.
Depletion of Slpi #1 came out at: GFP, % of control 90.8; viability (ATP), % of control 61; inactive.
Slpi #2 showed GFP, % of control 90; viability (ATP), % of control 56.8; inactive.
Slpi #3 scored GFP, % of control 37; viability (ATP), % of control 58.8; inactive.
Silencing of Cetn4 #1 gave: GFP, % of control 113; viability (ATP), % of control 65.3; inactive.
Cetn4 #2 showed GFP, % of control 57.2; viability (ATP), % of control 54.3; inactive.
With knock-down of Cetn4 #3, the record shows GFP, % of control 50.5; viability (ATP), % of control 59.8; inactive.
Silencing of Or8b12b #1 gave: GFP, % of control 78.6; viability (ATP), % of control 81.6; inactive.
Or8b12b #2 scored GFP, % of control 128; viability (ATP), % of control 81; active.
Depletion of Or8b12b #3 gave: GFP, % of control 59.6; viability (ATP), % of control 78.3; inactive.
Knock-down of Cd200l1 #1 gave: GFP, % of control 44.2; viability (ATP), % of control 58.2; inactive.
Silencing of Cd200l1 #2 resulted in: GFP, % of control 98.7; viability (ATP), % of control 96; inactive.
Silencing of Cd200l1 #3 came out at: GFP, % of control 87.7; viability (ATP), % of control 84.6; inactive.

No new results follow: entries from further up.
Or8b12b #2 → GFP, % of control = 128; viability (ATP), % of control = 81; activity call = active
Or8b12b #3 → GFP, % of control = 59.6; viability (ATP), % of control = 78.3; activity call = inactive
